The values that follow come from paper PMC8346516, “Lsm12 is an NAADP receptor and a two-pore channel regulatory protein required for calcium mobilization from acidic organelles” (Nature Communications, 2021).

Amino acid sequences for entries named in this document (tags omitted). A change or cut given only in a name is not applied to a line headed by its entry. Chains listed by the source or under a name are the forms on record and can include a tag or linker.
UniProt Q8NHX9: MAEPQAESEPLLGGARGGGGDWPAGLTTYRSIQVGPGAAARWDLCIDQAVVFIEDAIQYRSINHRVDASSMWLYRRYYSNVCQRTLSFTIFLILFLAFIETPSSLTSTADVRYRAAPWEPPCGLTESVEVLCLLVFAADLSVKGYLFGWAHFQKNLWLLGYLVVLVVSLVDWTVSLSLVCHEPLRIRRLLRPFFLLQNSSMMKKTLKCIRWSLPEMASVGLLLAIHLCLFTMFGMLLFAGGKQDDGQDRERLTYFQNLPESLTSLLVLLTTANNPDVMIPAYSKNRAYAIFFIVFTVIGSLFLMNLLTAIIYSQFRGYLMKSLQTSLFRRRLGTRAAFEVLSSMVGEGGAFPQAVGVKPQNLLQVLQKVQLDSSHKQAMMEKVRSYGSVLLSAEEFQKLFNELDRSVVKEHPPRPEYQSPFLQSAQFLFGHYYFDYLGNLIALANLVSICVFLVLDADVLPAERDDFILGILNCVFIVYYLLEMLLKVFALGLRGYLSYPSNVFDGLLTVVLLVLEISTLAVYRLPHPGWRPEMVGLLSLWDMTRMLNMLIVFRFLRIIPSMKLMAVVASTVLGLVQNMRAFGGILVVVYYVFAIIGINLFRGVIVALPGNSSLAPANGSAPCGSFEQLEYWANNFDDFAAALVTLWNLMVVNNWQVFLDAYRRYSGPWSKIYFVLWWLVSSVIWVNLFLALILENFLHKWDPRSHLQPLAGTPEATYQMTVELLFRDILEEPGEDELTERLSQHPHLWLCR
UniProt Q3MHD2: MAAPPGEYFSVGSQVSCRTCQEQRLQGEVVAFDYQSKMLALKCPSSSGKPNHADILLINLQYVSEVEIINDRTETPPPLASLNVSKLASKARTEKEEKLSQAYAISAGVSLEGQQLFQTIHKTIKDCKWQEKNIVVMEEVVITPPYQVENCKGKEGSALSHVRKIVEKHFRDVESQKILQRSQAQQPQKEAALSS
Lsm12^Δ45–50 mutant (Q3MHD2, form named): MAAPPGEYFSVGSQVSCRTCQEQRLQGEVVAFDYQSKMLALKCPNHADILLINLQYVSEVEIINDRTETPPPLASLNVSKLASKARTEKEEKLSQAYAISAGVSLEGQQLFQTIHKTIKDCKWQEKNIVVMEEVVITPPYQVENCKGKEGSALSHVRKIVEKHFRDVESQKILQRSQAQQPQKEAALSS

For assay [1], the target named is TPC2 (exogenous, in TPC2-expressing HEK293 cells) (human) (UniProt Q8NHX9). The experiment in a line: co-IP; co-immunoprecipitation of co-expressed TPC2 and Lsm12 WT or truncation mutants (Fig. 4e); WT also in the absence or presence of 100 µM NAADP (Fig. 4f).
Assay [2] concerns the target V5-tagged TPC2 (human) (UniProt Q8NHX9). The experiment in a line: proximity ligation; in situ PLA (Duolink) with anti-V5 and anti-FLAG antibodies on fixed, permeabilized HEK293 cells co-expressing V5-tagged TPC2 and FLAG-tagged Lsm12; no signal if only one construct was expressed.
In assay [3] the target is endogenous Lsm12 (human (endogenous in HEK293)) (UniProt Q3MHD2). The experiment in a line: pull-down; immobilized NAADP (agarose beads), the ligand of Lsm12, on lysates of TPC1- or TPC2-expressing HEK293 WT and Lsm12-KO cells; immunoblot of TPC1 and TPC2. Background: In western blotting, separated proteins are transferred to a membrane and probed.
Assay [4] concerns the target V5-tagged TPC2 (human) (UniProt Q8NHX9). The experiment in a line: co-IP; co-immunoprecipitation of V5-tagged TPC2 and Lsm12 WT or Δ45–50 transiently expressed in HEK293 Lsm12-KO cells (Fig. 7e).
The target of assay [5] is TPC2-FLAG (human) (UniProt Q8NHX9). Briefly: co-IP; anti-FLAG immunoprecipitation from HEK293 cells expressing FLAG-tagged TPC1 or TPC2; immunoblot of endogenous Lsm12.

No constants are given. Whether binding was seen depends on the method and setting. Binding seen in cells or lysates may run through a third protein. Some results given as binding are weak or reduced against the parent protein; the word gives no strength.

In the case of “FLAG-tagged Lsm12 (WT) (from UniProt Q3MHD2 1-195)”, the binding entry in assay [1] and in assay [2] was “binds” each time. For the substance “TPC2 (exogenous, in TPC2-expressing HEK293 cells) (from UniProt Q8NHX9 1-752)”, in assay [3], the binding entry is listed as “binds”. With “Lsm12^Δ45–50 mutant (from UniProt Q3MHD2 1-195)”, the binding result in assay [4] was “binds weakly”. Take “endogenous Lsm12 (from UniProt Q3MHD2 1-195)”: the binding entry in assay [5] is “binds”.
